Data reported in patent US20190225705A1.
These are yes or no findings as the source states them, for the method shown. Some entries that bind do so weakly or less than the wild type.

Sequences of proteins named here, by UniProt entry; tags and fusion partners are left off. A change or cut given only in a name is not applied to a line headed by its entry.
UniProt P03951: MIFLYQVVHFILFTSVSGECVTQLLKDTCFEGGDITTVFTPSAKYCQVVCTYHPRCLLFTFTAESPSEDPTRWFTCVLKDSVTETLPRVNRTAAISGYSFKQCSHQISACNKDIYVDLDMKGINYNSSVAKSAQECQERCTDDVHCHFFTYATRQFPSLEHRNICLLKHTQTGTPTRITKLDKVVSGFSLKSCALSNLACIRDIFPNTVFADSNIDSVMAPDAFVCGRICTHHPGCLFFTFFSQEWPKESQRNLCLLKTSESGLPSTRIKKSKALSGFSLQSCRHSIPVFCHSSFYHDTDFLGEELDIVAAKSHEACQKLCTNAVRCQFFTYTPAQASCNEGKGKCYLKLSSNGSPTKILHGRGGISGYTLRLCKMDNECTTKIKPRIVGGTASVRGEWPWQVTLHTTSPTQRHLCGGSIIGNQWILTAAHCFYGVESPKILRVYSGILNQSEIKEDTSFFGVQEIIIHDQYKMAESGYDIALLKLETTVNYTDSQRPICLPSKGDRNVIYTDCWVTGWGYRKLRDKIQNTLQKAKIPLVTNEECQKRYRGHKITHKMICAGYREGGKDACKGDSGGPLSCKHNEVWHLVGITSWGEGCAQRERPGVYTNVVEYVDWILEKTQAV

How the values were obtained:
[1] = target: human coagulation factor XI (human) (UniProt P03951); test: ELISA on coated human FXI, anti-h-Fc-POD detection
[2] = target: human coagulation factor XI (human) (UniProt P03951); test: ELISA on coated human FXI
[3] = target: human coagulation factor XI (human) (UniProt P03951); test: biochemical assays (ELISA)
[4] = target: human coagulation factor XI (human) (UniProt P03951); test: competitive ELISA on coated FXI, competitor biotinylated 1A6

- binding [1]: binds
- binding [2]: binds
- binding [3]: binds
- binding [4]: binds
B1: humanized and germlined anti-FXI antibody TPP-3577 (antibody, human IgG1, kappa, V domains shown)
VH: EVTLRESGPALVKPTQTLTLTCTFSGFSLSTSGMCVGWIRQPPGKALEWLAHIDWDDDKYYSTSLKSRLTISKDTSKNQVVLTMTNMDPVDTATYYCARIRSSVYAHYYGMDVWGQGTTVTVSS
VL: DIVMTQSPDSLAVSLGERATISCKSSQSVLYSGDNYLNWYQQKPGQPPKLLIYAASTLESGIPDRFSGSGSGTDFTLTISSLQAEDVAVYYCQQYNGDPWTFGGGTKVEIKR
